Measurements published in PMC3422239.
Results are given in words; binding and its absence hold for the method and conditions named. For part of these data: Binding can be weak; no strength is given. Sequences can lack the tags named with a protein.

Tests used:
Assay in all cases: far-Western, overlay or dot blot; GFP-tagged IRS-2 pulled down with GFP-Trap from HEK293 or Flp-In HEK293 lysates, SDS-PAGE, nitrocellulose; membrane incubated overnight at 4°C with 14-3-3ζ-HRP, ECL; cells serum starved, IGF-1, or PI-103, wortmannin or Akti-1/2 before IGF-1; both purified
GFP-IRS-2-T517A (mouse) = molecular target: T1, GFP-IRS-2-T517A (mouse) (UniProt P81122)
T1 sequence: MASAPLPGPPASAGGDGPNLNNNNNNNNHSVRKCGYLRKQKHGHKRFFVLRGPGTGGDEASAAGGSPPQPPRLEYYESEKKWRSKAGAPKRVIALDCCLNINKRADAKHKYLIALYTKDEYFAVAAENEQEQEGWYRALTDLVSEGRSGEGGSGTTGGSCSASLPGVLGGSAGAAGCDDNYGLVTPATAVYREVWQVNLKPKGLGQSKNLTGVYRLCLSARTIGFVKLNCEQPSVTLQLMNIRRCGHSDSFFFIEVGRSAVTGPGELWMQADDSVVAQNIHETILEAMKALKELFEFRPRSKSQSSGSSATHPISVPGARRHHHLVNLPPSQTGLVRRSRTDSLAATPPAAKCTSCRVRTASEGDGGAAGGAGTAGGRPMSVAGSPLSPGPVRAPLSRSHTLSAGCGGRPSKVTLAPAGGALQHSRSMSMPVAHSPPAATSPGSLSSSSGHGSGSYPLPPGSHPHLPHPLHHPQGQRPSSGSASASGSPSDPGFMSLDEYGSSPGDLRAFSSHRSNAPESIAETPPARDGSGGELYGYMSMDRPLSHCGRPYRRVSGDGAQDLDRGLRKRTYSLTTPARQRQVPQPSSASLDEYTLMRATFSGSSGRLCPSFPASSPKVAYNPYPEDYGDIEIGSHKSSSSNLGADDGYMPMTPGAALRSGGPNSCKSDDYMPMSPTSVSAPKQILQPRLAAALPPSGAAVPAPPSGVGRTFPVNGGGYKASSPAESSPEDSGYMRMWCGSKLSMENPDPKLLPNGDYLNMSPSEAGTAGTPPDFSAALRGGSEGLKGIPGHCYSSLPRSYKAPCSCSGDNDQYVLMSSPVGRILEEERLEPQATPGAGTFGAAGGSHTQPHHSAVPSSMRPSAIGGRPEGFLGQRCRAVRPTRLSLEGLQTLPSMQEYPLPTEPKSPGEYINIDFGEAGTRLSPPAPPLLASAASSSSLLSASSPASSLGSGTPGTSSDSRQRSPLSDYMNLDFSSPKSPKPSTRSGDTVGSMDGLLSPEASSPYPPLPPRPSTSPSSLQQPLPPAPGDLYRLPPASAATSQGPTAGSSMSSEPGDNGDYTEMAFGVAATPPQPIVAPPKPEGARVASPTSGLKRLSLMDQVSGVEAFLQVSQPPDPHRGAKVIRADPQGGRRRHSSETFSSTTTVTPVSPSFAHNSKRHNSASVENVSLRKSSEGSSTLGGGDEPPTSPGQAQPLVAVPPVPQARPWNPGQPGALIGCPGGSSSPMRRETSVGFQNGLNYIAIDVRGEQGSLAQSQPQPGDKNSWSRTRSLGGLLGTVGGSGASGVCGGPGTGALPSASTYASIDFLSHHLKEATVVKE

GFP-IRS2-301-600 (mouse) = molecular target: T2, GFP-IRS2-301-600 (mouse) (UniProt P81122)
T2 sequence: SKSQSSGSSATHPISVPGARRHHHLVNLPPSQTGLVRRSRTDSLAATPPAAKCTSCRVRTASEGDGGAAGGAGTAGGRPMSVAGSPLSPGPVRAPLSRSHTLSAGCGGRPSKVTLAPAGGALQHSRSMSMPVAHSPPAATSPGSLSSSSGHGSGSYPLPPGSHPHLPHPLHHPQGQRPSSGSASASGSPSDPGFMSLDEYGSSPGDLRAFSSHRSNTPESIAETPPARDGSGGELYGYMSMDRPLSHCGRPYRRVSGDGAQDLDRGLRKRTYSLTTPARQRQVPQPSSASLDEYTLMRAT

[1] = molecular target: T3, GFP-IRS2-601-1321 (mouse) (UniProt P81122)
T3 sequence: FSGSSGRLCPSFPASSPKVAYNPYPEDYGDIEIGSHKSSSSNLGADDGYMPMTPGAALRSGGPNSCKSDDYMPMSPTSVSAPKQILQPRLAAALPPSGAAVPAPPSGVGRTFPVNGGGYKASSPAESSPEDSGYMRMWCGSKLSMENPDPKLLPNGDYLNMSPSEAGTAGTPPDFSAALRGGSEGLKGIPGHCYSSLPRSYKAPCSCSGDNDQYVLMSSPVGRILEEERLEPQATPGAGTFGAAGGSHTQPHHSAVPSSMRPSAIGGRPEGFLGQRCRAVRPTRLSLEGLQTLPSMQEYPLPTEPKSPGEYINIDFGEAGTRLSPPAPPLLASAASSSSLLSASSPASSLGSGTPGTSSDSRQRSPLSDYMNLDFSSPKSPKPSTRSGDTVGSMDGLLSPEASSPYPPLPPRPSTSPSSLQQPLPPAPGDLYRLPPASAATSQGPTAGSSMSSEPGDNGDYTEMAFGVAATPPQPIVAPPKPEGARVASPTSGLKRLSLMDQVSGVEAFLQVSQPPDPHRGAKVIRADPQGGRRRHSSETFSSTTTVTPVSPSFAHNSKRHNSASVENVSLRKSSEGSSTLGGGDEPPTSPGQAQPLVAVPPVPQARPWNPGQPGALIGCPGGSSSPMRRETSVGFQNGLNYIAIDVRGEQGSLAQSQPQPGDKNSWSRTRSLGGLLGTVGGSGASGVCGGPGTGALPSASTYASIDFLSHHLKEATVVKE

Recombinant human 14-3-3ζ-HRP
binding (GFP-IRS-2-T517A (mouse)): binds | binding (GFP-IRS2-301-600 (mouse)): binds | binding [1]: no binding
